Measured values from patent US6979740B2, “Process for preparation of ring-substituted 8-aminoquinoline analogs as antimalarial agents” (National Institute of Pharmaceutical Education and Research, priority 2003, dated 2005).
At least one compound was matched to its structure with a doubt left.

tested on: Plasmodium berghei (sensitive strain); assay: Blood schizontocidal activity against Plasmodium berghei infection in mice; type: in vivo; settings: P. berghei infected mice, oral, 4 doses D0 to D+3; suppressive = parasitaemia suppressed on D+4 and D+7, curative = cleared up to 28 days
Protocol: Blood schizontocidal activity evaluation of potential antimalarial compounds against Plasmodium berghei (sensitive strain) and P. yoelii nigeriensis (resistant strain) infection in mice.
Test Procedure: On day ‘0’, groups of 6 mice each were inoculated, intraperitoneally, with 1×10^7 infected-erythrocytes, from a donor mouse. Four hours later, mice were administered test compounds/chloroquine primaquine/vehicle, orally. A total of 4 doses were given on days D‘0’, D+1, D+2, and D+3. The tail blood smears were made on day D+4 and D+7, stained with Geimsa, and examined microscopically. […] The results of blood-schizontocidal activities for the synthesized compounds are given below in Table 1.

Compound	Biological activity at (mg/kg/days × 4)
COc1cc(NC(C)CCCN)c2nc(C(C)C)ccc2c1OC (stereo not drawn) [Example 53, N^8-(4-Amino-1-methylbutyl)-2-isopropyl-5,6-dimethoxy-8-quinolinamine]	Inactive at 100 mg/kg
COc1cc(NC(C)CCCNC(=O)[C@@H](N)C(C)C)c2nc(C(C)(C)C)ccc2c1 (stereo partly drawn) [Example 62, N^1-[4-(2-tert-Butyl-6-methoxy-8-quinolylamino)pentyl]-(2S)-2-amino-3-methyl-butanamide]	Inactive at 100 mg/kg
COc1cc(NC(C)CCCN)c2nc(C3CCCCC3)ccc2c1OC (stereo not drawn) [Example 52, N^8-(4-Amino-1-methylbutyl)-2-cyclohexyl-5,6-dimethoxy-8-quinolinamine]	Inactive at 100 mg/kg
